From paper PMC1382020
Results are given in words; binding and its absence hold for the method and conditions named. Binding seen in cells or lysates may run through a third protein. Binding calls can cover weak binding; strength is not graded here.

Protein sequences, listed by entry. Tags and fused reporters are not part of them. Lines headed by an entry give the natural chain unless they say otherwise; changes in a name come on top.
UniProt Q80YV3: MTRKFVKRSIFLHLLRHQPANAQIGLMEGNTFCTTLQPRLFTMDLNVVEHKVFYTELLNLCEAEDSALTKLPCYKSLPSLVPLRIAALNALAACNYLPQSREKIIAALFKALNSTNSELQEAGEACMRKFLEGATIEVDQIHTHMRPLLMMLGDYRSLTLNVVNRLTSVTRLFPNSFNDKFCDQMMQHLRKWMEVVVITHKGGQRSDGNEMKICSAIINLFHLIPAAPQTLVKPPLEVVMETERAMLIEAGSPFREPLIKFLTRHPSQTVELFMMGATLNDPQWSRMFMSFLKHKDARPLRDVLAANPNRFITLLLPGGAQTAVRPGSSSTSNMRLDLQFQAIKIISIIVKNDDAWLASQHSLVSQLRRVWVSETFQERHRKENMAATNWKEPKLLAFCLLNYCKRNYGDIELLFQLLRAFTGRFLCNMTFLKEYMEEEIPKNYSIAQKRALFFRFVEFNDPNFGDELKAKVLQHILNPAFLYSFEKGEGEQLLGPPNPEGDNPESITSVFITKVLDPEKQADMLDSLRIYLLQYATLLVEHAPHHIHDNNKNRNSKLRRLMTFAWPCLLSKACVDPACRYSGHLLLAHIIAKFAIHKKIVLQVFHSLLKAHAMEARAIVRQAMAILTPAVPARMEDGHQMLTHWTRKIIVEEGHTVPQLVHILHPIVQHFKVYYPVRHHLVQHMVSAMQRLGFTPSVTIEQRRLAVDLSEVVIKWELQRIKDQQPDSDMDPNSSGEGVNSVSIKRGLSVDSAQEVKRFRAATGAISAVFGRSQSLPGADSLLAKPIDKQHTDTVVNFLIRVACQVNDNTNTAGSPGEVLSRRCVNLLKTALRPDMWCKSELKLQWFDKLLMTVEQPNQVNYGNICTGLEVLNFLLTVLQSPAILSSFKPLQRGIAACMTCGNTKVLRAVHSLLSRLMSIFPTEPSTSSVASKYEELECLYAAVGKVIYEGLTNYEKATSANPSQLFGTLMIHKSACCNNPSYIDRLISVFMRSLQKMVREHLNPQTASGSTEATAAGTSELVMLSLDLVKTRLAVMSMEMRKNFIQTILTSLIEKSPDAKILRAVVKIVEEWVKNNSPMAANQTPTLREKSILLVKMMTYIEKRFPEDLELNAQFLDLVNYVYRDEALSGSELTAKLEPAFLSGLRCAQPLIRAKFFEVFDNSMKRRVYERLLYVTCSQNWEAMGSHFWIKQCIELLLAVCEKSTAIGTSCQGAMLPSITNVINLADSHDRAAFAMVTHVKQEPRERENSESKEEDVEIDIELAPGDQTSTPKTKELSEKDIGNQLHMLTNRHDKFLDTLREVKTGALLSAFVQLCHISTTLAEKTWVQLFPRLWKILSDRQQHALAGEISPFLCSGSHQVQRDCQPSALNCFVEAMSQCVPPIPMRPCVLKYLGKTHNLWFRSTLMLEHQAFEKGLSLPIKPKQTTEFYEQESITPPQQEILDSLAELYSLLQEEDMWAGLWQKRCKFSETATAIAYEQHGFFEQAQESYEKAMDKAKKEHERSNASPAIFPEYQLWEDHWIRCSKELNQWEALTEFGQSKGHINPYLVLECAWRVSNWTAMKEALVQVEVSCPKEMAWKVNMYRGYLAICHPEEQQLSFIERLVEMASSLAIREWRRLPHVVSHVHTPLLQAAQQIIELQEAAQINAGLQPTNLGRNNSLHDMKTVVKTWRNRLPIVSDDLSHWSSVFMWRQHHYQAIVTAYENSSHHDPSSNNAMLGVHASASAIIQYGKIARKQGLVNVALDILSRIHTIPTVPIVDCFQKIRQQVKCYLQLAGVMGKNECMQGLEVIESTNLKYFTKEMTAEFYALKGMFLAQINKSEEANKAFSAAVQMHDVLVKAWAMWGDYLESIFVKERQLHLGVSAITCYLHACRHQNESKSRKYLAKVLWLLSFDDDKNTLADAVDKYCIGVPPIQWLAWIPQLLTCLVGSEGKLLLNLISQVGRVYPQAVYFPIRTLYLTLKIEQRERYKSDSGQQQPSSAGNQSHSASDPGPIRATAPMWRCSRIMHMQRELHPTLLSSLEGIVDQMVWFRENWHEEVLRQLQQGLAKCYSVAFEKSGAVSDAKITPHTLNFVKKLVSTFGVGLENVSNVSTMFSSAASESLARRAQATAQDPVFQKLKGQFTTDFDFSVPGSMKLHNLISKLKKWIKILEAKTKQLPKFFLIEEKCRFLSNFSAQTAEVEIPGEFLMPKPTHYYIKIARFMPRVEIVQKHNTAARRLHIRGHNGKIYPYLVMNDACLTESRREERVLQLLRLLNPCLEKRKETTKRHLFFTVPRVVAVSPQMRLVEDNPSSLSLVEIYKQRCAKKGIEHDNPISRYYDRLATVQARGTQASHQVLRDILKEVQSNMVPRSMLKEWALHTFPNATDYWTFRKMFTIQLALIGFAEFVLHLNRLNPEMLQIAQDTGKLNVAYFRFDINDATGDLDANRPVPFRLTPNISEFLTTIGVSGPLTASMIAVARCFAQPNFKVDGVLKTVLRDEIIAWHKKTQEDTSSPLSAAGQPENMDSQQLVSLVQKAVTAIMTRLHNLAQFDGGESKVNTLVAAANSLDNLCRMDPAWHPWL
UniProt O15265: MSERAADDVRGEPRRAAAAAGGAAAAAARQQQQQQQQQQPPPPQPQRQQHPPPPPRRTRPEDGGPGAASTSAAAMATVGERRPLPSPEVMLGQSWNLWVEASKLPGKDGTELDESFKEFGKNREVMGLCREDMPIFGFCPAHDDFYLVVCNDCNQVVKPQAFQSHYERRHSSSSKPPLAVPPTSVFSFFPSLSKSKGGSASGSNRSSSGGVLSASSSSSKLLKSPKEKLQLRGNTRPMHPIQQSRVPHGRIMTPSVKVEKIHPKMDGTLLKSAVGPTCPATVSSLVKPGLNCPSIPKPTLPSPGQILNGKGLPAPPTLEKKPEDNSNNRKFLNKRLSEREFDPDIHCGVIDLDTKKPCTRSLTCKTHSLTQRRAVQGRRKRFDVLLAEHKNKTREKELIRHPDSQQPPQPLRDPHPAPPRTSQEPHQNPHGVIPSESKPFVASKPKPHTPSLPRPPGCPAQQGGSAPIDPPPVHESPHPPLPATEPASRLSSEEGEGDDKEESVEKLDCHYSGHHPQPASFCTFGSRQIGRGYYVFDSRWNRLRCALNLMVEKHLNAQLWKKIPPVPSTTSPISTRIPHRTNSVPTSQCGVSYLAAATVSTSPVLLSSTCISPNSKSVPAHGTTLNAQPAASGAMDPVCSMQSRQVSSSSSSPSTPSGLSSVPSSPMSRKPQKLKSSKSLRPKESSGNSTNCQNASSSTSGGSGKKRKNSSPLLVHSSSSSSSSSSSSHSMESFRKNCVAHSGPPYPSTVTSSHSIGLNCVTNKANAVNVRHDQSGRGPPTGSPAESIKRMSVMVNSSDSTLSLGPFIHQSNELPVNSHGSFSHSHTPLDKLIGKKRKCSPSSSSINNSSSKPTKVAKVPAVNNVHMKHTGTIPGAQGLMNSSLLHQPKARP

Key:
[1] = target: Trrap (mouse (endogenous in mouse retina)) (UniProt Q80YV3); assay: co-IP; whole retinal extracts (two retinas) of 4-wk-old or 10-wk-old R7N or R7E mice; IP with anti-ATXN7, anti-TRRAP or anti-SPT3 antibody on protein A-Sepharose beads; Western blot of the immunopurified fractions
[2] = target: T1, Spt3 (mouse (endogenous in mouse retina)) (UniProt Q8BVY4); assay: as above
T1 sequence: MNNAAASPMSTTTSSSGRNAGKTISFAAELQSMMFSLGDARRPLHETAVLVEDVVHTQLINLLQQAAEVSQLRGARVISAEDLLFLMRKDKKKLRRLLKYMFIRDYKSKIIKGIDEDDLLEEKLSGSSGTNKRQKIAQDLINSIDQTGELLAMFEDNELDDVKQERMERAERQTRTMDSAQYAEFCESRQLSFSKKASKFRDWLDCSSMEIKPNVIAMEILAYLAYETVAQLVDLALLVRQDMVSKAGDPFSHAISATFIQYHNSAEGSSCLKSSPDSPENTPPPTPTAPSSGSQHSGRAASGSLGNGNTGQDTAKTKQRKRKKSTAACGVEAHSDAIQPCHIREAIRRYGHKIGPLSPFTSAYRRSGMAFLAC

binding [1] | binding [2] | Substance
binds | binds | mutant (90Q) polyQ-expanded ataxin-7 (ATXN7) (from UniProt O15265)
binds | – | normal (10Q) ataxin-7 (ATXN7) (from UniProt O15265 1-892)
